# Test results taken from paper PMC7819943, “Rice protein-binding microarrays: a tool to detect cis-acting elements near promoter regions in rice”.
# This is one part of the list.
# Molecular target: T1, OsSMF1 (Oryza sativa, UniProt Q6ZLB0 1-436)
# T1 sequence: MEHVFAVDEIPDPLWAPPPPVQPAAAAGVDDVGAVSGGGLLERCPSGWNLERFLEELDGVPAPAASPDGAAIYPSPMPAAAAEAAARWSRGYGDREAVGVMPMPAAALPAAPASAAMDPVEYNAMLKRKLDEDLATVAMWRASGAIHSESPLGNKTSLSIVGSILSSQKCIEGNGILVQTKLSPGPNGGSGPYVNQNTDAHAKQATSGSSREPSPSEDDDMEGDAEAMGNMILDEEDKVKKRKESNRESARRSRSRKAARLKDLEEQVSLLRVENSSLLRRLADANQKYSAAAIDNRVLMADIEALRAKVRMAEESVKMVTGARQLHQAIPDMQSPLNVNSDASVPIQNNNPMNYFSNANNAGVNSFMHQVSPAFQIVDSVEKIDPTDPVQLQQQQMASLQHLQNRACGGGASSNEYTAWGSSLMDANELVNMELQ
# Experiment: protein-binding microarray (RPBM); PBS, 2% BSA, 51.3 ng/ul salmon testes DNA, 50 uM zinc acetate, 200 nM TF, 25 C, 1 h; high values mean tight binding
# Details: protein: recombinant; tags: N-terminal polyhistidine and DsRed monomer fusion (pET32a); chain copies: 2; label: CyDye5-dUTP incorporated in the synthesized complementary strand; 3' TTTTT single-stranded linker to array surface; dsDNA, one strand shown
# How it was run: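 In PBS with 2% BSA, salmon testes DNA and 50 µM zinc acetate, 200 nM protein was incubated on a custom Agilent array at 25 °C for 1 h and then washed off. The array had been made double-stranded by primer extension with Cy5-dUTP and blocked with 2% BSA. The proteins were transcription factors fused N-terminally to polyhistidine and DsRed, expressed in E. coli BL21-CodonPlus and purified on Ni–NTA. The binding signal is per-feature fluorescence intensity (arbitrary units) from an Axon 4000B scanner.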
row,Sequence,binding signal
1,AATCGCAGCGTTCCCCGTCCCTCTCTCTCCTTTCCTCCTCCGGAGTCACCTAGTGCAG,3160 fluorescence intensity (a.u.)
2,CAGCATGCATGCTCAGCGTCGTTGCCGTGTAGATATTCCCCGGAGTCACCTAGTGCAG,3450 fluorescence intensity (a.u.)
3,TCTCTCTGTGTGTGTTTGTGTCATATATGAGTTTGTGGGTCGGAGTCACCTAGTGCAG,7040 fluorescence intensity (a.u.)
4,GGTCATTCCCGAGTCCCCATCTGGCCATCTCTCCAATCTCCGGAGTCACCTAGTGCAG,4460 fluorescence intensity (a.u.)
5,AAAACATTATGATCAATTATACGTCGCCACGCCAGCTGTCCGGAGTCACCTAGTGCAG,6960 fluorescence intensity (a.u.)
6,ATTTTAATGAATCATCAGTAGCTGACGCCATGCCTTAGCCCGGAGTCACCTAGTGCAG,4080 fluorescence intensity (a.u.)
7,ACCAGGCGACCAAGATGACGACTGTGTCAAAGCCTTTTCTCGGAGTCACCTAGTGCAG,4410 fluorescence intensity (a.u.)
8,AAAATCCACTGTAACATTTGATCCGTACATAGTGAAACATCGGAGTCACCTAGTGCAG,38500 fluorescence intensity (a.u.)
9,GGGTGACGATTTTGTAATTCGATGACAAGTTGAGGGACCTCGGAGTCACCTAGTGCAG,3660 fluorescence intensity (a.u.)
10,GTGAAAGACACGCCGAACATGGATGCCGTCTACACCTCCTCGGAGTCACCTAGTGCAG,3220 fluorescence intensity (a.u.)
11,GATTTACTCGCTCCAGATTAGCACACGCACGCACGTAGGGCGGAGTCACCTAGTGCAG,4620 fluorescence intensity (a.u.)
12,GCTTCCGCGTCACTCCGCTCGCCTCCAAAACCACACCGCGCGGAGTCACCTAGTGCAG,6860 fluorescence intensity (a.u.)
13,GATCGGATGCCACGTGTCGCGCGACACCCAAACCCACGGCCGGAGTCACCTAGTGCAG,12100 fluorescence intensity (a.u.)
14,AAATCCATACACACGTCGATTCGTATCTGACTCGGTCTGCCGGAGTCACCTAGTGCAG,7910 fluorescence intensity (a.u.)
15,TGTTTAAGTTTGTCCTAATTACCTGTCACATTTTCCGTGCCGGAGTCACCTAGTGCAG,4020 fluorescence intensity (a.u.)
16,TGGACCTGAACCGAACCACTAAGTAGTAGTACGTGTGAGGCGGAGTCACCTAGTGCAG,41100 fluorescence intensity (a.u.)
17,CCTTTTCCTCTCTCATAAAGTTACATCACCTTAGTTTTGCCGGAGTCACCTAGTGCAG,6080 fluorescence intensity (a.u.)
18,CTGCTGCCGTCGCAGAAGGTGCTGACATGGCCAGGGGTGGCGGAGTCACCTAGTGCAG,45300 fluorescence intensity (a.u.)
19,GGAGTGAGGACTGAGGAGGAAGAAGAGGGCGGGATCTAGGCGGAGTCACCTAGTGCAG,17900 fluorescence intensity (a.u.)
20,CCTGAATTTGCTGGGATTTTACGAGAAATATAGCACAAGTCGGAGTCACCTAGTGCAG,33800 fluorescence intensity (a.u.)
21,GCGTGGGCCCGCGCCGCCCGCCTGGGGACGACGGCGACGCCGGAGTCACCTAGTGCAG,3470 fluorescence intensity (a.u.)

# As a working copy, some entries already given:
row,Sequence,binding signal
11,GATTTACTCGCTCCAGATTAGCACACGCACGCACGTAGGGCGGAGTCACCTAGTGCAG,4620 fluorescence intensity (a.u.)
12,GCTTCCGCGTCACTCCGCTCGCCTCCAAAACCACACCGCGCGGAGTCACCTAGTGCAG,6860 fluorescence intensity (a.u.)
13,GATCGGATGCCACGTGTCGCGCGACACCCAAACCCACGGCCGGAGTCACCTAGTGCAG,12100 fluorescence intensity (a.u.)

# The listing continues.

row,Sequence,binding signal
1,AATTTGTACGCGCGCATTCAGTTTTCATTTCAGTTCGAAACGGAGTCACCTAGTGCAG,3900 fluorescence intensity (a.u.)
2,ATAAGTTGTTACCTAGAATGAAACATGATGTGGCAATGACCGGAGTCACCTAGTGCAG,7660 fluorescence intensity (a.u.)
3,CCATAGAGGTCTCGAGAGTGCTGATAGTAACTCATAACTGCGGAGTCACCTAGTGCAG,3490 fluorescence intensity (a.u.)
4,TACCGCATCTGACGCCTCCGCATCCAAAGCAACGTCATGGCGGAGTCACCTAGTGCAG,5290 fluorescence intensity (a.u.)
5,GCCACACGCGGCGCACGCCAGCGCGAGCCACATGGCGTCCCGGAGTCACCTAGTGCAG,6430 fluorescence intensity (a.u.)
6,GTTACCATAGGGTTGGTTATGTCACTAAAGAACCCATGTCCGGAGTCACCTAGTGCAG,3290 fluorescence intensity (a.u.)
7,GAGCGCCTTGACACGTGAACATTCGCACATTTGACCTTCCCGGAGTCACCTAGTGCAG,3280 fluorescence intensity (a.u.)
8,GTGAGAATTCCAAGGCAATAATACACGTAAGGTACAGTAGCGGAGTCACCTAGTGCAG,7330 fluorescence intensity (a.u.)
9,GTCTCGTCTCGTCTCGTCTCGTCTCGTGTCGCCTCAACCCCGGAGTCACCTAGTGCAG,3300 fluorescence intensity (a.u.)
10,GTGGTAAACTGGTAAGAGCAAGTATAATAAAAGGATGTGCCGGAGTCACCTAGTGCAG,5560 fluorescence intensity (a.u.)
11,AAATATGAGTATGACGCGTGTGCCAAAATACTAATAAAATCGGAGTCACCTAGTGCAG,3340 fluorescence intensity (a.u.)
12,TGTGTGACTGTGTGCGACCCTGGTCAGGTCAACTCCGCGACGGAGTCACCTAGTGCAG,3600 fluorescence intensity (a.u.)
13,TTTGAATGTCCATTATTCTGAAATCTGAAACATATATTCACGGAGTCACCTAGTGCAG,5190 fluorescence intensity (a.u.)
14,GGCGACGGTGCGCTGCGTTGTCCTAGTGTTTGTCCTTGTCCGGAGTCACCTAGTGCAG,4320 fluorescence intensity (a.u.)
15,GTGCGCGCGGTGCTTAGGCAGACGCGGCCCAGATCGGCGCCGGAGTCACCTAGTGCAG,40500 fluorescence intensity (a.u.)
16,TCCAAATCCTATGAAATTCCTATGGAAATCCACGTTGCATCGGAGTCACCTAGTGCAG,7670 fluorescence intensity (a.u.)
17,ACAATTTTAATGAAATCGTACATTATACTATATATGTTTTCGGAGTCACCTAGTGCAG,3150 fluorescence intensity (a.u.)
18,GCTCGCCGACCTCCTCCTATTAAAACCCGATGATTCCGTGCGGAGTCACCTAGTGCAG,28400 fluorescence intensity (a.u.)
19,ATGTAGTCGTAGCAGAACGTCGATGGTGGAGATGTAGTCACGGAGTCACCTAGTGCAG,3830 fluorescence intensity (a.u.)
20,CACAAATTTGAACAAACACATTCATGATTCATCCCCTCCACGGAGTCACCTAGTGCAG,4930 fluorescence intensity (a.u.)
21,AATATTGACCTGAATACTTGATGCCATCTGACGCATATGTCGGAGTCACCTAGTGCAG,5740 fluorescence intensity (a.u.)
